Experimental data taken from PubChem BioAssay AID330 (DTP/NCI, 2004).
The list is a part of this screen's results and no random one: it gathers tests that were run many times, whatever their T/C, doses with no T/C, and many T/C values between a quarter and a half above the control. Further doses and runs are listed elsewhere. T/C gives the treated animals as a percentage of the vehicle group. Some doses have a count of surviving animals in place of a T/C: the source holds a T/C of zero for them, seemingly a mark for toxic or unscored doses. Some survivor counts are full or nearly so, which does not show that the dose was tolerated: the source hardly ever lists a survival T/C far under the control, and the zero likely stands for such cases as well. Counts of survivors are from the toxicity check (mostly the fifth day) where no day follows; animals may have died later. Schedules are NCI's codes, taken here to give the interval after Q, in days (D) or hours (H), and the number of doses after X. Some doses were run more than once; their values stand side by side, smallest first. Some molecules as drawn cover several salts, stereoisomers or complexes of the source; a dose is that of the sample tested. Where survival is the endpoint, the PubChem record calls one and a half times the control and up active, and a quarter to a half above the control has no call in these data; cut-offs in other NCI protocols can differ. Some T/C values are followed by the survivors on the day toxicity was checked, most often the fifth; without a count, all were alive then.

Test system: P388 leukemia ip, CD2F1 mice, survival T/C
Test: NCI In Vivo Anticancer Drug Screen. Data for tumor model P388 Leukemia (intraperitoneal) in CD2F1 (CDF1) mice
Conditions: T/C endpoint: median survival time, higher T/C = longer survival
[1] = dose: 25.0 mg/kg/injection, schedule: Q01DX009 (ip), vehicle: water
[2] = dose: 400.0 mg/kg/injection, schedule: Q04DX003 (ip), vehicle: saline with Tween-80
[3] = dose: 240.0 mg/kg/injection, schedule: Q01DX005 (ip), vehicle: saline with Tween-80
[4] = dose: 200.0 mg/kg/injection, schedule: Q01DX005 (ip), vehicle: saline with Tween-80
[5] = dose: 200.0 mg/kg/injection, schedule: Q01DX005 (ip), vehicle: Klucel (hydroxypropylcellulose) (HPC)
[6] = dose: 100.0 mg/kg/injection, schedule: Q01DX009 (ip), vehicle: Klucel (hydroxypropylcellulose) (HPC)
[7] = dose: 50.0 mg/kg/injection, schedule: Q04DX002 (ip), vehicle: water
[8] = dose: 200.0 mg/kg/injection, schedule: Q04DX002 (ip), vehicle: saline with Tween-80
[9] = dose: 50.0 mg/kg/injection, schedule: Q01DX009 (ip), vehicle: saline with Tween-80

COc1ccc(-c2csc(=[N+]3CCCCC3)s2)cc1
T/C (dose: 12.5 mg/kg/injection, schedule: Q01DX009 (ip), vehicle: water): 126 and 128 % of control | T/C [1]: 146 % of control | survivor count [1]: 6 of 6 | survivor count (dose: 50.0 mg/kg/injection, schedule: Q01DX009 (ip), vehicle: water): 0 of 6 and 1 of 6 | survivor count (dose: 100.0 mg/kg/injection, schedule: Q01DX009 (ip), vehicle: water): 0 of 6

NC(CC(=O)CCl)C(=O)O (stereo unspecified)
T/C (dose: 6.25 mg/kg/injection, schedule: Q04DX003 (ip), vehicle: saline): 149 % of control | T/C (dose: 12.5 mg/kg/injection, schedule: Q04DX003 (ip), vehicle: saline, evaluated on day 5): 142 % of control | T/C (dose: 12.5 mg/kg/injection, schedule: Q04DX003 (ip), vehicle: saline, evaluated on day 30): 142 % of control | survivor count (dose: 50.0 mg/kg/injection, schedule: Q04DX003 (ip), vehicle: saline): 3 of 6 | survivor count (dose: 100.0 mg/kg/injection, schedule: Q04DX003 (ip), vehicle: saline with Tween-80): 1 of 6 | survivor count (dose: 200.0 mg/kg/injection, schedule: Q04DX003 (ip), vehicle: saline with Tween-80): 0 of 6 | survivor count [2]: 0 of 6

CCCCC[P+](c1ccccc1)(c1ccccc1)c1ccccc1
T/C (dose: 6.25 mg/kg/injection, schedule: Q01DX009 (ip), vehicle: Klucel (hydroxypropylcellulose) (HPC)): 127 % of control | T/C (dose: 12.5 mg/kg/injection, schedule: Q01DX009 (ip), vehicle: Klucel (hydroxypropylcellulose) (HPC)): 129 % of control

CCN(CC)CCOC(=O)Nc1cc(C)cc(C)c1
survivor count [3]: 0 of 6

C=CCn1cc2c3c(cccc31)C1CC(C)CN(C)C1C2 (stereo unspecified)
survivor count [4]: 0 of 6

COc1cc(C2c3cc4c(c(OC)c3C(O)C3CC(=O)OC23)OCO4)cc(OC)c1OC (stereo unspecified)
survivor count [3]: 3 of 6

C1CNC(N2CCN(C3=NCCN3)CC2)=N1
survivor count [5]: 1 of 5

Cc1ccc(/C=C2/C/C(=C\c3ccc(C)cc3)C2=O)cc1
survivor count (dose: 100.0 mg/kg/injection, schedule: Q04DX003 (ip), vehicle: Klucel (hydroxypropylcellulose) (HPC)): 6 of 6 | survivor count (dose: 200.0 mg/kg/injection, schedule: Q04DX003 (ip), vehicle: Klucel (hydroxypropylcellulose) (HPC)): 6 of 6

CCOC(=O)c1sc2nc(C)[nH]c(=O)c2c1C
survivor count (dose: 100.0 mg/kg/injection, schedule: Q01DX005 (ip), vehicle: saline with Tween-80): 6 of 6 | survivor count [4]: 2 of 6

C[N+]1(Cc2csc(-c3ccc(Cl)cc3)n2)CCOCC1
survivor count [6]: 1 of 6 and 5 of 6

CCC(C)C1NC(=O)C2C(CCN2C(=O)C(Cc2c[nH]c3ccccc23)NC(=O)C(CC(C)C)N(C)C)Oc2ccc(cc2)/C=C\NC1=O (stereo unspecified)
survivor count [2]: 3 of 6

O=C(N1CCCCC(Cl)(Cl)C1=O)C(Cl)(Cl)Cl
survivor count [4]: 3 of 5

CCC1C(=O)CC(C(=O)O)C1C(=O)O (stereo unspecified)
survivor count (dose: 120.0 mg/kg/injection, schedule: Q01DX005 (ip), vehicle: saline): 6 of 6

CC(C)(C)C1C=Nn2c(=O)n(-c3ccccc3)c(=O)n21 (stereo unspecified)
survivor count (dose: 50.0 mg/kg/injection, schedule: Q04DX003 (ip), vehicle: other): 4 of 4

Cc1[nH]ccc2c(C)c3nc4ccccc4c3cc12
T/C (dose: 20.0 mg/kg/injection, schedule: Q04DX002 (ip), vehicle: distilled water + Tween-80): 133 % of control | T/C (dose: 40.0 mg/kg/injection, schedule: Q04DX002 (ip), vehicle: distilled water + Tween-80): 136 % of control | T/C [7]: 140 % of control | T/C (dose: 80.0 mg/kg/injection, schedule: Q04DX002 (ip), vehicle: distilled water + Tween-80): 139 % of control | survivor count (dose: 100.0 mg/kg/injection, schedule: Q01DX009 (ip), vehicle: saline with Tween-80): 5 of 6

C[n+]1ccc(I)c2ccc(Cl)cc21
survivor count [6]: 4 of 6

Nc1nc2c(nnn2C2OC(CO)C(O)C2O)c(=O)[nH]1 (stereo unspecified)
survivor count [4]: 0 of 6

CNC(=O)OCC1=C([Si](C)(C)C)C(=O)C(OC)=C(OC)C1=O
survivor count [4]: 1 of 6

CC1=NCCc2cc3c(cc21)OCO3
survivor count (dose: 100.0 mg/kg/injection, schedule: Q01DX001 (ip), vehicle: saline + alcohol): 0 of 6

COc1cc2c(c(OC)c1OC)-c1ccc(OC)c(=O)cc1[C@@H](N(C)C)CC2
T/C (dose: 20.0 mg/kg/injection, schedule: Q01DX009 (ip), vehicle: Klucel (hydroxypropylcellulose) (HPC)): 130 and 131 % of control [5 of 6 alive] | survivor count (dose: 40.0 mg/kg/injection, schedule: Q01DX009 (ip), vehicle: Klucel (hydroxypropylcellulose) (HPC)): 5 of 6

CN=C(N)N/N=C(\C)c1ccc2ccc3ccccc3c2c1
survivor count (dose: 100.0 mg/kg/injection, schedule: Q04DX002 (ip), vehicle: saline with Tween-80): 3 of 6 | survivor count [8]: 0 of 6

N=C(N)c1ccc2cc(/C=C/c3cc4ccc(C(=N)N)cc4o3)[nH]c2c1
T/C (dose: 6.25 mg/kg/injection, schedule: Q04DX003 (ip), vehicle: suspension in saline): 142 % of control | T/C (dose: 12.5 mg/kg/injection, schedule: Q04DX003 (ip), vehicle: saline): 131 % of control [5 of 6 alive] | T/C (dose: 12.5 mg/kg/injection, schedule: Q04DX003 (ip), vehicle: suspension in saline): 136 % of control | T/C (dose: 25.0 mg/kg/injection, schedule: Q04DX003 (ip), vehicle: saline): 141 % of control | T/C (dose: 25.0 mg/kg/injection, schedule: Q04DX003 (ip), vehicle: suspension in saline): 142 % of control | survivor count (dose: 100.0 mg/kg/injection, schedule: Q04DX003 (ip), vehicle: suspension in saline): 6 of 6 | survivor count (dose: 200.0 mg/kg/injection, schedule: Q04DX003 (ip), vehicle: suspension in saline): 1 of 6 | survivor count (dose: 400.0 mg/kg/injection, schedule: Q04DX003 (ip), vehicle: suspension in saline): 0 of 6

O=C(O)CSCSCC(=O)O
survivor count (dose: 400.0 mg/kg/injection, schedule: Q04DX003 (ip), vehicle: saline): 0 of 6

COc1cc2c(cc1OC)-c1cc(C)c3cc(OC)c(OC)cc3[n+]1CC2
survivor count (dose: 400.0 mg/kg/injection, schedule: Q01DX009 (ip), vehicle: water): 4 of 6

O=C(O)CCCCOc1ccc(N(CCCl)CCCl)cc1
T/C (dose: 200.0 mg/kg/injection, schedule: Q01DX001 (ip), vehicle: Klucel (hydroxypropylcellulose) (HPC)): 147 % of control | survivor count (dose: 400.0 mg/kg/injection, schedule: Q01DX001 (ip), vehicle: Klucel (hydroxypropylcellulose) (HPC)): 3 of 6

CCOC(=O)C1=C(N)C2CC(C)=C(C)CN2C1 (stereo unspecified)
survivor count [4]: 0 of 5

O=[N+]([O-])c1cccc(C(O)C=C(C(F)(F)F)C(F)(F)F)c1 (stereo unspecified)
survivor count (dose: 33.0 mg/kg/injection, schedule: Q01DX009 (ip), vehicle: saline with Tween-80): 6 of 6 | T/C [9]: 127 % of control | survivor count [9]: 6 of 6 | survivor count (dose: 75.0 mg/kg/injection, schedule: Q01DX009 (ip), vehicle: saline with Tween-80): 6 of 6

O=C1c2c(O)cccc2-c2nn(CCNCCO)c3ccc(NCCNCCO)c1c23
T/C (dose: 6.25 mg/kg/injection, schedule: Q04DX002 (ip), vehicle: water): 134 % of control | T/C (dose: 12.5 mg/kg/injection, schedule: Q04DX002 (ip), vehicle: water): 142 % of control | T/C [7]: 142 % of control | survivor count [7]: 4 of 6 | survivor count (dose: 100.0 mg/kg/injection, schedule: Q04DX002 (ip), vehicle: water): 1 of 6 and 6 of 6 | survivor count (dose: 200.0 mg/kg/injection, schedule: Q04DX002 (ip), vehicle: water): 1 of 6

CN=C(N)NN=C(c1ccccc1)c1ccccc1
survivor count [8]: 0 of 6 | survivor count (dose: 400.0 mg/kg/injection, schedule: Q04DX002 (ip), vehicle: saline with Tween-80): 0 of 6

O=C(NCCCCCNC(=O)C12CC3CC(CC(C3)C1)C2)C12CC3CC(CC(C3)C1)C2
survivor count [5]: 6 of 6
